Test results taken from patent US11420967B2 (priority 2018, dated 2022).
For some assays here: At least one read-out could not be matched to a standard name with certainty. For some assays here: At least one compound was matched to its structure with a doubt left. Some of these results come from one statement about several compounds together. Some compounds share one range, which may span the group rather than tell each member.

How the values were obtained:
[1] = Pharmacokinetics and accumulation in brain parenchyma in mice; type: in vivo, mouse; conditions: i.p. injection
Procedure: FIG. 21 illustrates pharmacokinetics of compound 19 and accumulation of 19 in brain parenchyma. A: single i.p. injection of 19 (100 mg/kg) in mice and its time-dependent accumulation in plasma and brain tissues. (n=5 mice per point). B: Repetitive i.p. injections of 19 (20 mg/kg) in mice and its time-dependent accumulation in plasma (n=5 mice per point).

[2] = tested on: NCI-60 cancer cell line panel; assay: NCI-60 cancer cell line panel screen (percent growth inhibition); type: cell-based, human; conditions: 10 μM, 48 hours
Text: FIG. 4 illustrates analysis of cell-killing activity of select compounds of the disclosure in NCI-60 cancer cell line panel. 8, 20, 27 and 23 (left panel) and taxol, thalipcarpine, and maytansine activity (right panel) in the NCI-60 cell lines.
This screening platform measures the antitumor activities of compounds expressed as percent growth inhibition, which differentiates the compound's activity at inhibiting cell proliferation and reducing cell number (i.e. killing cells). […] Two GBM cells lines included in the NCI-60 panel, SF-295 and SF-539, were among the top ten cell lines that were the most sensitive to 8, 20 and 27 treatments (FIG. 6). Their respective EC50 values of the compounds measured in these cells mirrored their EC50 values measured in T98G cells. Additional cell lines among the top ten cell lines that were sensitive to these three compounds were three cell lines of colon cancer origin: Colo205, HT-29 and HCC-2998 (FIG. 5).

[3] = tested on: mouse NPC (neural progenitor cells); assay: Cell proliferation of mouse NPC (BrdU incorporation); type: cell-based; conditions: 3 days
Text: FIG. 28 illustrates the effect of the compound of the disclosure on the cell proliferation of glioblastomas, neural stem cells and PDGF-amplified signaling glioblastomas. Panels A-B: Cell proliferation of human PAD-7^mut glioblastoma cells in culture (neural stem cells CB660 harboring 7 driver mutations involved in glioblastoma pathogenesis: TP53^DD, TERT^mut, CCND1^mut; CDK4R^24C; p16 binding deficient; EGFR^vIII and myristolated-AKT), and has non-methylated MGMT promoter (temozolomide insensitive) and human GBM8 glioblastoma cells in culture (patient-derived human glioblastoma cells closest to proneural phenotype) and has methylated MGMT promoter (temozolomide sensitive). […]
FIGS. 28 A-B provide cell proliferation of human PAD-7^mut glioblastoma cells in culture (neural stem cells CB660 harboring 7 driver mutations involved in glioblastoma pathogenesis: TP53^DD, TERT^mut, CCND1^mut; CDK4R^24C; p16 binding deficient; EGFR^vIII and myristolated-AKT), and has non-methylated MGMT promoter (temozolomide insensitive) and human GBM8 glioblastoma cells in culture (patient-derived human glioblastoma cells closest to proneural phenotype) and has methylated MGMT promoter (temozolomide sensitive). Cell proliferation was measured by quantifying BrdU incorporation in cells at seeding (dark gray zone) and following 3 days (light gray zone) of treatment with compound 19 and temozolomide. […]

[4] = tested on: patient-derived human melanoma cells harboring BRAF mutations; assay: Killing of patient-derived human melanoma cells harboring BRAF mutations (Alamar blue); type: cell-based; conditions: 3 days
Procedure: Cell viability was measured by quantifying changes in cell-permeable Alamar blue color both at seeding (gray zone) and 3 days after treatment (white zone).

SMILES: CCn1c2ccccc2c2cc(C(O)c3cccc4ncccc34)ccc21 (racemic) [Compound 19, (9-ethyl-9H-carbazol-3-yl)(quinolin-5-yl)methanol]
- time with concentration above EC90 (1 μM) [1]: about 18 hours

SMILES: CCn1c2ccccc2c2cc(C(=O)c3ccc(C)c4ccccc34)ccc21 [Compound 8, 9-ethyl-3-[(4-methylnaphthalen-1-yl)carbonyl]-9H-carbazole]
- loss in cell number in the 4 cell lines killed [2]: 13% to 60%
- growth inhibition in the 11 cell lines with halted proliferation ([2]; 11 cell lines): 9% to −1%
- percent growth inhibition in the 41 cell lines with significantly reduced proliferation ([2]; 41 cell lines): 67% to 10%

SMILES: CCn1c2ccccc2c2cc(C(=O)c3cccc4ncccc34)ccc21 [Compound 20, 9-ethyl-3-(quinoline-5-carbonyl)-9H-carbazole]
- loss in cell number in the 4 cell lines killed [2]: 13% to 60%

SMILES: CCn1c2ccccc2c2cc(C(O)c3ccc(C)c4ccccc34)ccc21 (centres unmarked) [Compound 27, (9-ethyl-9H-carbazol-3-yl)(4-methylnaphthalen-1-yl)methanol]
- loss in cell number in the 4 cell lines killed [2]: 13% to 60%

SMILES: Cn1nnc2c(C(N)=O)ncn2c1=O [temozolomide, reference compound]
- effect on cell proliferation (in words) [3]: Neither compound 19 nor temozolomide affect the cell proliferation

SMILES: CCCS(=O)(=O)Nc1ccc(F)c(C(=O)c2c[nH]c3ncc(-c4ccc(Cl)cc4)cc23)c1F [vemurafenib, reference compound]
- killing of patient-derived human melanomas (in words) [4]: killed
